Some entries share one result that the patent states for a list of compounds.
Test system: alpha, Adrenoceptors
Assay: Methoxamine-induced contraction in rat aortic rings (alpha1 blocking potency)
Conditions: 45 minute incubation; no effect below; maximal effects reduced; Figures 5C and 5D
Experimental: In order to determine the alpha1 blocking potency of cinanserin, ketanserin and LY 53857, their effect on methoxamine induced aortic constriction was determined. Male Sprague-Dawley rats were sacrificed using C02. Aortic rings (3 mm in width) were cut, denuded of endothelium by gently rolling the rings on moistened filter paper, and mounted on stainless steel hooks in 20 mL muscle chambers containing oxygenated physiological salt solution (PSS) of the following composition (in mM): 118.4 NaCI, 4.7 KCI, 1.2 MgS04, 1.2 KH2P04, 1.9 CaC12, 25.0 NaHC03, 10.1 D-glucose, and 0.01 mM Na2EDTA maintained at 37 °C. The hooks were connected to Grass FT03C transducers for recording of isometric force development. The rings were stretched to 2 g preload during the equilibration period. During equilibration the rings were periodically stimulated with 24 mM KCI to determine contractility. The effectiveness of endothelial removal was confirmed by the absence of relaxation by 1 µM acetylcholine of a contraction in response to 0.01 µM phenylephrine.
Various concentrations of the test compounds were then added to individual baths and allowed a 45 minute incubation before cumulative concentration response curves for methoxamine (1 nM-30 /1.M) were obtained. Solvent controls were run in parallel. […]

## CC(O)C(C)OC(=O)C1CC2c3cccc4c3c(cn4C(C)C)CC2N(C)C1 (stereo not shown) [LY 53857]
  concentrations at which an effect on methoxamine-induced contractions (significant inhibition) was reached: 30 to 100 µM

Source: patent EP0596449A2, “Serotonin receptor antagonists for treating myocardial ischemia” (E.R. SQUIBB & SONS, INC., priority 1992, dated 1994)
